Measurements reported in PubChem BioAssay AID743454 (Peter MacCallum Cancer Centre, 2014)
This is a random part of about 18,000 reagents tested. Over the whole deposit, 450 (2.5%) got an active call. 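Single biological run; no consistent viability z cut-off exists, so the class columns, not z-scores, define the calls.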 Reagent sequences are not shown.

Test: 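Genes whose loss kills vorinostat-resistant colon cancer cells under vorinostat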 (primary screen)
System: human HCT116-VR colon cancer cells, selected for vorinostat resistance
Reagents: siRNA pool against human genes, 40 nM siRNA pool
Timing: vorinostat for 24 h, read-out about 72 h after transfection
Conditions: vorinostat at 2.5 µM final
Measured: 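Cell viability by CellTiter-Fluor and caspase 3/7 activity by luminescence, each scaled to mock wells per plate, duplicates averaged, then robust z-scored over all plates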
Direction: viability robust z-score: higher = more viable cells than screen typical; caspase robust z-score: higher = more caspase 3/7 activity than screen typical
Rule for the call: 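Hits are knock-downs in viability class RV1/RV2 or caspase class CA1/CA2, excluding ones that killed cells in the no-drug cell-count arm; hits then retested with single siRNAs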

| Target gene | viability hit class | caspase hit class | viability robust z-score | caspase robust z-score | Outcome |
| --- | --- | --- | --- | --- | --- |
| DOCK4 | no change | no change | -0.53 | 0.52 | inactive |
| SPZ1 | no change | no change | -1.49 | 1.33 | inactive |
| RMND1 | no change | no change | 1.36 | 0.24 | inactive |
| PANK2 | no change | no change | 0.73 | 3.87 | inactive |
| TSPY3 | no change | no change | 0.8 | 0.64 | inactive |
| FOXRED1 | no change | no change | -0.02 | -0.5 | inactive |
| HEXIM1 | no change | no change | 0 | -0.14 | inactive |
| POP5 | no change | no change | 0.08 | -0.38 | inactive |
| CRK | no change | no change | -0.38 | -0.6 | inactive |

Continued, starting with the last 3 of the part before.
| Target gene | viability hit class | caspase hit class | viability robust z-score | caspase robust z-score | Outcome |
| --- | --- | --- | --- | --- | --- |
| HEXIM1 | no change | no change | 0 | -0.14 | inactive |
| POP5 | no change | no change | 0.08 | -0.38 | inactive |
| CRK | no change | no change | -0.38 | -0.6 | inactive |
| KLHL15 | no change | no change | 0.87 | 2.39 | inactive |
| SYN3 | no change | no change | 0.07 | 0.06 | inactive |
| ZNF500 | no change | no change | 0.26 | 0.33 | inactive |
| RAD54L2 | no change | no change | -0.86 | -1.27 | inactive |
| H1-6 | no change | no change | 0.78 | -0.33 | inactive |
| MAN1B1 | no change | no change | 0.47 | 1.36 | inactive |
| DENND4A | no change | no change | 1.16 | -0.5 | inactive |
| LINGO4 | no change | no change | -0.18 | 4.32 | inactive |
| CACNA1E | no change | no change | -0.99 | 2.6 | inactive |
| VPS39 | no change | no change | 0.04 | -0.22 | inactive |
| ZNF347 | no change | no change | 1.79 | 0.12 | inactive |
| IFNA16 | no change | CA2 (caspase activation) | -0.94 | 6.53 | active |
| ARHGAP18 | no change | no change | -1.94 | 0.02 | inactive |
| OR2M5 | no change | no change | 0.38 | -0.77 | inactive |
